Results taken from the supplement of paper PMC12819154, “High-throughput peptide-centric local stability assay extends protein–ligand identification to membrane proteins, tissues and bacteria” (Nature Structural & Molecular Biology, 2025).
The list shows a part of the results. Small differences around the control level are noise.

Protein sequences, listed by entry. Tags and fused reporters are not part of them. Lines headed by an entry give the natural chain unless they say otherwise; changes in a name come on top.
UniProt Q14145, whole entry: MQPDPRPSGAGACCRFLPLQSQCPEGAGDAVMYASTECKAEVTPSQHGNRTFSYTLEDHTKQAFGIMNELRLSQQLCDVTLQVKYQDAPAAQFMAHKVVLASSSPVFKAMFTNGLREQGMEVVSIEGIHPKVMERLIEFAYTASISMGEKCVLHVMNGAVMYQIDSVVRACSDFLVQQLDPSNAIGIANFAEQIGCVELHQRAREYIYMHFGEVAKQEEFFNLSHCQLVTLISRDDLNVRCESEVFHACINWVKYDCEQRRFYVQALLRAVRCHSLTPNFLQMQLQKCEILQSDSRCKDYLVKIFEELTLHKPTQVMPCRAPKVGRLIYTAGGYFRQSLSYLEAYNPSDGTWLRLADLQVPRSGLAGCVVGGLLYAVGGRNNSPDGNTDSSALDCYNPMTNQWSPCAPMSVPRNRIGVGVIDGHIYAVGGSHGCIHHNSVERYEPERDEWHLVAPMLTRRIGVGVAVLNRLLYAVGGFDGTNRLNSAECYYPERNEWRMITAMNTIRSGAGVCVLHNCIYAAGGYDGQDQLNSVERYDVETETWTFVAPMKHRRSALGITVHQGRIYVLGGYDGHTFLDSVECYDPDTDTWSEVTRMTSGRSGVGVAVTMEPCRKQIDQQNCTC
UniProt Q13569: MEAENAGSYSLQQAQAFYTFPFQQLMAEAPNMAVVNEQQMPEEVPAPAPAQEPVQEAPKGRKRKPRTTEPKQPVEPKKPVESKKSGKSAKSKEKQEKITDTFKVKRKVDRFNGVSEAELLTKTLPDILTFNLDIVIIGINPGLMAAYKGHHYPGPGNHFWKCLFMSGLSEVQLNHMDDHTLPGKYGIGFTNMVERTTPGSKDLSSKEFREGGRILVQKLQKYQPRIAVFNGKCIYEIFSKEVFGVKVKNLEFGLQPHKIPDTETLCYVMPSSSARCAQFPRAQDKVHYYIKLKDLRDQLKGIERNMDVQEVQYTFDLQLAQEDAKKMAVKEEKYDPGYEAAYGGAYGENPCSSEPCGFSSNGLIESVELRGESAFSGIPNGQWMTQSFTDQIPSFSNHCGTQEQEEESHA
UniProt Q13352: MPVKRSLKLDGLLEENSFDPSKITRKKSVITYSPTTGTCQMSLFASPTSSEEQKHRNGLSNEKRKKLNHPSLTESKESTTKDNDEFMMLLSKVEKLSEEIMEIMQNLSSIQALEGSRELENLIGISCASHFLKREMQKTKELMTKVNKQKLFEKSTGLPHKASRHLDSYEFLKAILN
UniProt Q13895: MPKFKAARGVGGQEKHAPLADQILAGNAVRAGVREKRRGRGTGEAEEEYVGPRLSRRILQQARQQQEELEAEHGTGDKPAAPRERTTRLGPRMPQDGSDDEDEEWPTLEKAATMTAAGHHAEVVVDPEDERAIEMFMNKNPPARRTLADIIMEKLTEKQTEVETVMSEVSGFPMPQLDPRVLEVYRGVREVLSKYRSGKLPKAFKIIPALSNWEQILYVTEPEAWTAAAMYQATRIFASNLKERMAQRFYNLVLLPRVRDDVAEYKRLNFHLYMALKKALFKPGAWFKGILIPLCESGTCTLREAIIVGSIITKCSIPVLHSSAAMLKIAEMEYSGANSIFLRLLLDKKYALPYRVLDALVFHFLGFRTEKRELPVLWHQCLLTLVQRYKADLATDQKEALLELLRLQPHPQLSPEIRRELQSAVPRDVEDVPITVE
UniProt Q13310, whole entry: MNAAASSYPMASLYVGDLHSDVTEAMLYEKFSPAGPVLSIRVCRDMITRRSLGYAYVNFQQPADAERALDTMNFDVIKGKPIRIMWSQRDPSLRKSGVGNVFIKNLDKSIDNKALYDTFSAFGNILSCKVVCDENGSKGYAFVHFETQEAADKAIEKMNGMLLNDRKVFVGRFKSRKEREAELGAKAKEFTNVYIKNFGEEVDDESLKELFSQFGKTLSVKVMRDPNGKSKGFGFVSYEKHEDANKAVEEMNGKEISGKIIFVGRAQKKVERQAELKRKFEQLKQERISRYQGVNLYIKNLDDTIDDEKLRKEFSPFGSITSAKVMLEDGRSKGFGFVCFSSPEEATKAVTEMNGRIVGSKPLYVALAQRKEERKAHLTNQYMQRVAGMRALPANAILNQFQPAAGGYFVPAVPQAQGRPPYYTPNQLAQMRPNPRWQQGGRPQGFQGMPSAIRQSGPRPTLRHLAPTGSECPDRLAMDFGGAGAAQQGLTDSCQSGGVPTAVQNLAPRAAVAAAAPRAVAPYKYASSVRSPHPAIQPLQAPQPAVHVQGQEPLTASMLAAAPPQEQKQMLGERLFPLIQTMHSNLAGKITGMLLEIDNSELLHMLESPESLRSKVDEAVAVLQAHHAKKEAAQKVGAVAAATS
UniProt Q13564: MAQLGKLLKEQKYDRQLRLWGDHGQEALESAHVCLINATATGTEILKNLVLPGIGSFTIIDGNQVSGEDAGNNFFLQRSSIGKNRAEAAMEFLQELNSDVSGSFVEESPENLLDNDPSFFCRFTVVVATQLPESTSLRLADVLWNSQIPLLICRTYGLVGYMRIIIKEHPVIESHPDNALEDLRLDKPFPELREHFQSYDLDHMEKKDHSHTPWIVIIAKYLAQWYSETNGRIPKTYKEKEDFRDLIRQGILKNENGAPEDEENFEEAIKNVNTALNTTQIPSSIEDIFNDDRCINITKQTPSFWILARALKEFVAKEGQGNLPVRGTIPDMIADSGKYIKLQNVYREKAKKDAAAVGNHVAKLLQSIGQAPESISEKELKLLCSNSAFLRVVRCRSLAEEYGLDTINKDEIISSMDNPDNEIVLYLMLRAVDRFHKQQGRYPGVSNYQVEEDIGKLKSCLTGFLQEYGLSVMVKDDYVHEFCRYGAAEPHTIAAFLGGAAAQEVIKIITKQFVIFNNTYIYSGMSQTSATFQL
UniProt Q14202: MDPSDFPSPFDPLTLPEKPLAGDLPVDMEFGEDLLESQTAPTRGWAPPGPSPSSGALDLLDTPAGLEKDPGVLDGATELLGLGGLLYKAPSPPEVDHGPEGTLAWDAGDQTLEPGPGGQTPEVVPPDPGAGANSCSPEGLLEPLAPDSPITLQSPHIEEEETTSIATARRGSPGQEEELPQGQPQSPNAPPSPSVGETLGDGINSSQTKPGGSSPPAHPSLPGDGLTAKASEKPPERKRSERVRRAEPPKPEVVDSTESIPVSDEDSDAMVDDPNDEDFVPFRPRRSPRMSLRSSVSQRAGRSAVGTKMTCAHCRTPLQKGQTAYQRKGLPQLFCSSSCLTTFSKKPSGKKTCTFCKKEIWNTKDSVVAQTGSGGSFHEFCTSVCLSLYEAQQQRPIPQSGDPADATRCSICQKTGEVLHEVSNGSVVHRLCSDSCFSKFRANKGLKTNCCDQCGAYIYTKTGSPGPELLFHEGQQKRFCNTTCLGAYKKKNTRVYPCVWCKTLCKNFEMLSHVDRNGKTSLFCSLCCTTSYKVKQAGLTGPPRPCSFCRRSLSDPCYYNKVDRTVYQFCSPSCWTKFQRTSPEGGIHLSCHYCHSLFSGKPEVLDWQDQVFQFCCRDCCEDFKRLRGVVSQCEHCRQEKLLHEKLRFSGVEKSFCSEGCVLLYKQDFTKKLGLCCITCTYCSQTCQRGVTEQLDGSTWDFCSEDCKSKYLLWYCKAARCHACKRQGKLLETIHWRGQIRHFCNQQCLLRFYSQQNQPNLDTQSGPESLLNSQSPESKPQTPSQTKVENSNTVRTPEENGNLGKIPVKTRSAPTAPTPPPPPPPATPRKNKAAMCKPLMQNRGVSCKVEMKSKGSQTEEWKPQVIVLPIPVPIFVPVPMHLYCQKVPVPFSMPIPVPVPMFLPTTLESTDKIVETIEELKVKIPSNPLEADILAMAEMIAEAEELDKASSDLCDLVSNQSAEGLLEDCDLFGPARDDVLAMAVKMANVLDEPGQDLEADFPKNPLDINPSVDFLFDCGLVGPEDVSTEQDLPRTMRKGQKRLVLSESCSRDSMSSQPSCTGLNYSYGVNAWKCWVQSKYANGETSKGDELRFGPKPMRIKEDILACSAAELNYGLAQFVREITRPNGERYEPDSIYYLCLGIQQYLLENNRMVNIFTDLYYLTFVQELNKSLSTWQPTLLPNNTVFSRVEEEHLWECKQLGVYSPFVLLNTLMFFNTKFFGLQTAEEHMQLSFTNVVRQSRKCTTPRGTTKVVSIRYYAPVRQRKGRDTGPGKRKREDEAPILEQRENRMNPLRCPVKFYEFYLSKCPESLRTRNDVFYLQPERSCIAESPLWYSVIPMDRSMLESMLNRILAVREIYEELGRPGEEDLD
UniProt Q147U1: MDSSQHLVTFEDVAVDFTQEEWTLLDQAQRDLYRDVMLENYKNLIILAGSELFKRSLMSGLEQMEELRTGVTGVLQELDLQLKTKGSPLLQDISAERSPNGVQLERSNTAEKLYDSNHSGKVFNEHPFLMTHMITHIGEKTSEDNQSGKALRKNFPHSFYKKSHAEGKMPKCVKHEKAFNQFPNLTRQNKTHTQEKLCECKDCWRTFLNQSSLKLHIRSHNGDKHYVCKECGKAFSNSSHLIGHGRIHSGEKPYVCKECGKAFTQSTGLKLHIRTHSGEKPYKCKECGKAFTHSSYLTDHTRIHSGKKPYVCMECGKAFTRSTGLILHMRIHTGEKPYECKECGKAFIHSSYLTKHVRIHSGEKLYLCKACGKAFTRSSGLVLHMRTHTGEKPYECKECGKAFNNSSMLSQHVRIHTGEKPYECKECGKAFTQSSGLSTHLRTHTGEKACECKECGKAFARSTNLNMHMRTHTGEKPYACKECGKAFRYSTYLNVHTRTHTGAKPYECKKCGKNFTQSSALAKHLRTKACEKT
UniProt Q13242, whole entry: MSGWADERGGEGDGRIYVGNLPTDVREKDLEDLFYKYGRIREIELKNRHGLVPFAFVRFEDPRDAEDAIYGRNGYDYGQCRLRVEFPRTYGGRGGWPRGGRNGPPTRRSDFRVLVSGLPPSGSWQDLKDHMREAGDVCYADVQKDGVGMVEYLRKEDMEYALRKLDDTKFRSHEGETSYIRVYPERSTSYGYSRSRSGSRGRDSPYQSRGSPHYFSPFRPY
UniProt Q14739: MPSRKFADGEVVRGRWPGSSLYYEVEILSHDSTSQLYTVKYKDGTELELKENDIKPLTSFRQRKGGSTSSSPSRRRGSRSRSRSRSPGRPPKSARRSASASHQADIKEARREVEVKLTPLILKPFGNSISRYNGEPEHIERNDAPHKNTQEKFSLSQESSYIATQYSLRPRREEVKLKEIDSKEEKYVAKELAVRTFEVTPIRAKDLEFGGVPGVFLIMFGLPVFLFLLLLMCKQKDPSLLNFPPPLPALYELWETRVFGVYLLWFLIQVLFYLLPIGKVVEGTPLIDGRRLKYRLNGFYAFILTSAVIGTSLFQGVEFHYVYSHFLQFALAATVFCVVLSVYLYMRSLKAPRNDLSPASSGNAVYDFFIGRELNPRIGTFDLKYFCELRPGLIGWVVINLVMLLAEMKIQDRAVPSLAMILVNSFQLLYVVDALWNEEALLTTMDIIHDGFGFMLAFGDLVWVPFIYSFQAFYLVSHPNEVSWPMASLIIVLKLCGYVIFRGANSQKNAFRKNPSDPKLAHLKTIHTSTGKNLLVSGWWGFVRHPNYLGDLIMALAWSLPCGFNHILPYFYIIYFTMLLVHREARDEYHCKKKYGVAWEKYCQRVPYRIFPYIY
UniProt Q13263: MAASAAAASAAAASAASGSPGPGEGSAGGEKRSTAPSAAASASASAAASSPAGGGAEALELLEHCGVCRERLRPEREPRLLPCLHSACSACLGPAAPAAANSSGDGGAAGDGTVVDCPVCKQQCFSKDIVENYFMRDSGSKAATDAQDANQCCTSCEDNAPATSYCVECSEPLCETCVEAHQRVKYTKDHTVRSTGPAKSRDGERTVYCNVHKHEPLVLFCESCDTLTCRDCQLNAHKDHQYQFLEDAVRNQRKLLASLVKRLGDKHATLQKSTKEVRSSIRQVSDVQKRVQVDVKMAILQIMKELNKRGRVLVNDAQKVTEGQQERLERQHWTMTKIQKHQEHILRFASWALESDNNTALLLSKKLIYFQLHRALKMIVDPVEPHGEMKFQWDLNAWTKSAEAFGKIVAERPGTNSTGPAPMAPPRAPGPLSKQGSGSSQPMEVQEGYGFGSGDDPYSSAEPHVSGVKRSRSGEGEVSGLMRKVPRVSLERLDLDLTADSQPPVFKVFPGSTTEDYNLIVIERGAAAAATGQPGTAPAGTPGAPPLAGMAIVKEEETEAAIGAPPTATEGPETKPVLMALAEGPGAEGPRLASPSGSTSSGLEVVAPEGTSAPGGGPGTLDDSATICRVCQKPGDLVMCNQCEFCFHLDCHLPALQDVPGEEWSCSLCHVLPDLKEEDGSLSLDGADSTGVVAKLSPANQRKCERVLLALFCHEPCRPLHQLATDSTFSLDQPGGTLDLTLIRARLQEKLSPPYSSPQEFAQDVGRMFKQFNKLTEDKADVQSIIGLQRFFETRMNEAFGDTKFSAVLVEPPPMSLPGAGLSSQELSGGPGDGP

Compound: Cc1nc(Nc2ncc(C(=O)Nc3c(C)cccc3Cl)s2)cc(N2CCN(CCO)CC2)n1 [dasatinib]
Assay: log2 fold change of tryptic peptide abundance, ligand vs vehicle (limited proteolysis) (log2 ratio); higher = more trypsin-susceptible (destabilized)
Details: ligand concentration: 5 uM; sample: K562 cleared lysate

Target	log2 fold change
CTTN (peptide sequence: ERQEQEEARR, peptide start residue: 380) (UniProt Q14247)	0.151
KEAP1 (peptide sequence: QAFGIMNELR, peptide start residue: 62) (UniProt Q14145)	-0.242
DDX39B (peptide sequence: DFLLKPELLR, peptide start residue: 48) (UniProt Q13838)	-0.118
UniProt Q14767 (peptide sequence: GSCSRPQLCVCR, peptide start residue: 199)	0.159
NMI (peptide sequence: VPYEIQK, peptide start residue: 96) (UniProt Q13287)	-0.312
TDG (peptide sequence: CLFMSGLSEVQLNHMDDHTLPGK, peptide start residue: 162) (UniProt Q13569)	0.978
IQGAP2 (peptide sequence: TLEQTGHVSSENK, peptide start residue: 1380) (UniProt Q13576)	0.933
ITGB3BP (peptide sequence: ELENLIGISCASHFLKR, peptide start residue: 118) (UniProt Q13352)	-0.239
CLINT1 (peptide sequence: GEFKDEEETVTTK, peptide start residue: 248) (UniProt Q14677)	-0.224
BYSL (peptide sequence: LNFHLYMALKK, peptide start residue: 268) (UniProt Q13895)	0.181
PABPC4 (peptide sequence: FSPAGPVLSIR, peptide start residue: 31) (UniProt Q13310)	0.187
GRB10 (peptide sequence: LLCAEDEQTR, peptide start residue: 378) (UniProt Q13322)	-0.31
NAE1 (peptide sequence: EHFQSYDLDHMEKK, peptide start residue: 194) (UniProt Q13564)	-0.502
NFIX (peptide sequence: SITSPPSTSTTK, peptide start residue: 265) (UniProt Q14938)	0.122
ZMYM3 (peptide sequence: TRNDVFYLQPER, peptide start residue: 1313) (UniProt Q14202)	-0.107
MTF1 (peptide sequence: TFNCESEGCSK, peptide start residue: 228) (UniProt Q14872)	-0.231
UniProt Q13155 (peptide sequence: CFGEQNKK, peptide start residue: 168)	-0.284
PPIL2 (peptide sequence: EFKGDEILAATMKAPEK, peptide start residue: 214) (UniProt Q13356)	-0.688
UniProt Q14129 (peptide sequence: VADQQSTLEK, peptide start residue: 149)	0.254
ATXN7L3 (peptide sequence: SKECVCPNCSR, peptide start residue: 81) (UniProt Q14CW9)	0.728
GTF2H3 (peptide sequence: QALKESQFTLSK, peptide start residue: 25) (UniProt Q13889)	-0.6
UniProt Q147U1 (peptide sequence: THTGEKPYECK, peptide start residue: 272)	0.103
UniProt Q13242 (peptide sequence: HGLVPFAFVR, peptide start residue: 49)	-0.146
KRR1 (peptide sequence: LGALTAEEIALK, peptide start residue: 358) (UniProt Q13601)	0.0885
PRPSAP1 (peptide sequence: EKPPITVVGDVGGR, peptide start residue: 250) (UniProt Q14558)	-0.279
LBR (peptide sequence: RSASASHQADIK, peptide start residue: 96) (UniProt Q14739)	-0.308
TRIM28 (peptide sequence: GRVLVNDAQKVTEGQQER, peptide start residue: 310) (UniProt Q13263)	0.185
PSME4 (peptide sequence: VMLQHELR, peptide start residue: 944) (UniProt Q14997)	-0.485
